From PubChem BioAssay AID588590 (National Center for Advancing Translational Sciences (NCATS), 2011)
Several values for one entry are separate records, joined by “and”; a condition that tells them apart may be missing. Identical values can stand only once. Out of some 390,000 compounds screened, about 4,000 (1%) were called active. The inconclusive results got no clear call from the source; some entries with a clear call stand among them for comparison. Calls follow the shape of the dose curve; as a rule, active = well fitted inhibition curve with a large enough effect; inconclusive = small, poorly fitted or top-dose-only effect, or another doubt; inactive = no such curve, though single readings can be large or run the other way. Potencies of inconclusive entries are doubtful fits and often do not repeat.

Chains of the proteins cited; added tags and fusions are not shown. Lines headed by an entry give the natural chain unless they say otherwise; changes in a name come on top.
UniProt Q9UNA4: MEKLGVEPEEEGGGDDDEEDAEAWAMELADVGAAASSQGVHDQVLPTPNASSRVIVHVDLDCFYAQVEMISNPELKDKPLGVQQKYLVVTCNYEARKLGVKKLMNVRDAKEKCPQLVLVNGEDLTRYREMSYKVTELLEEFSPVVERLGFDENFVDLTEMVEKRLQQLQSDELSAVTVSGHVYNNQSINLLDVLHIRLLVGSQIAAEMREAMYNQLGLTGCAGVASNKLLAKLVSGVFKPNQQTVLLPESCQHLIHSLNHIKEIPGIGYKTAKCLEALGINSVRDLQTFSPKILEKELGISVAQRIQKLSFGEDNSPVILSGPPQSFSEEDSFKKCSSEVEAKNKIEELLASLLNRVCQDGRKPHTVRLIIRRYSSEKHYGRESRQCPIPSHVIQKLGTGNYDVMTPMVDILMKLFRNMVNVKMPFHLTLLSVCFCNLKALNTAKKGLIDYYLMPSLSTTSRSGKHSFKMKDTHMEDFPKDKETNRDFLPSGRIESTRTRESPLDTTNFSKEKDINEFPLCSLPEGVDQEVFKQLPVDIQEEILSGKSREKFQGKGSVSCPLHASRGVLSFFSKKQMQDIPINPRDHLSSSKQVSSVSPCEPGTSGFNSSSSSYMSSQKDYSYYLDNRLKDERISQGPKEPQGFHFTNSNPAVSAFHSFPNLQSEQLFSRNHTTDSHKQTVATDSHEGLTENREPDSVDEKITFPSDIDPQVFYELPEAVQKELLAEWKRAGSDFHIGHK

The compounds below were run against DNA polymerase iota (Homo sapiens) (UniProt Q9UNA4) (assay: qHTS for Inhibitors of Polymerase Iota). Conditions: Pol iota fluorescent replication assay, 10 min; series mostly up to 115 µM.
Summary of the method: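 Pol iota at 10 nM preincubated 15 min with compounds at room temperature; reaction started with fluorescent substrate, 50 nM final. Fluorescence read kinetically at 0 and 10 min; buffer-only wells as negative control.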
Potency is read from the fitted curve at half-maximal effect.

SMILES	Potency
O=C(O)c1ccc(N/N=C/c2cccc3cccnc23)cc1	inconclusive: 14.1 µM [inhibitor, partial curve, poor fit]
COc1cc(/C=C2\Oc3ccc(C#Cc4ccc(O)cc4)cc3C2=O)cc(OC)c1	inconclusive: 31.6 µM [inhibitor, single point]
CCOc1ccc(CCNC(=O)COC(=O)c2ccc(Cl)nc2)cc1OCC	inconclusive: 89.1 µM [inhibitor, single point]
O=c1cc(C(O)C[N+](=O)[O-])occ1OCc1ccccc1 (stereo not drawn)	active: 25.1 µM
O=C(c1ccc(Cl)c(S(=O)(=O)NCc2ccco2)c1)N1CCN(c2ccc(F)cc2)CC1	inconclusive: 31.6 µM [inhibitor, single point]
Cc1oc(C(=O)Nc2ccc(O)cc2)cc1COc1ccccc1	inconclusive: 39.8 µM [inhibitor, single point]
CC(=O)Oc1ccc2c(=O)c(Oc3ccccc3)c(C)oc2c1OC(C)=O	inconclusive: 25.1 µM [inhibitor, full curve, poor fit]
CCc1cc2ccc(C)cc2nc1SCC(=O)c1ccc(NC(C)=O)cc1	inconclusive: 39.8 µM [inhibitor, single point]
Cc1ccc(N(C(=O)CNC(=O)c2ccco2)C(C(=O)NC2CCCC2)c2cccnc2)cc1C (stereo not drawn)	inconclusive: 11.2 µM [inhibitor, single point]
Cc1ccc(NC(=O)c2cc3ccccc3oc2=N)cc1	inconclusive: 22.4 µM [inhibitor, partial curve]
NC(CSC1(c2cccc3ccccc23)c2ccccc2-c2ccccc21)C(=O)O (stereo not drawn)	inconclusive: 12.6 µM [inhibitor, partial curve, poor fit]
NC(=O)c1ccsc1NC(=O)COC(=O)/C=C/c1ccccc1[N+](=O)[O-]	inconclusive: 31.6 µM [inhibitor, partial curve, poor fit]
COc1ccc(S(=O)(=O)N2CCC(C(=O)Nc3cc(Cl)ccc3N3CCOCC3)CC2)cc1OC	inconclusive: 89.1 µM [inhibitor, single point]
CCN(CC)CCNC(=O)c1ccc(Cn2c(=O)c3cccn3c3cccnc32)cc1	inconclusive: 89.1 µM [inhibitor, single point]
COc1cccc(N(CC(=O)NC2CCCC2)C(=O)CCC(=O)Nc2cc(C)on2)c1	inactive
CC1CCN(c2ccc(-c3nc(C(C)C)no3)cc2[N+](=O)[O-])CC1	inactive
CCN=C1SC(C(=O)Nc2cccc(C)c2)CC(=O)N1CC (stereo not drawn)	inconclusive: 35.5 µM [inhibitor, single point]
Cc1ccc(CNC(=O)c2ccc(N3CCC4(CC3)CC(c3cccc(Br)c3)=NO4)c(NC(=O)c3cccc(C)c3)c2)cc1	inconclusive: 50.1 µM [inhibitor, partial curve, poor fit]
Cc1cccc(NC(=O)CSc2nc(N)c(NC(=O)c3cccs3)c(=O)[nH]2)c1C	inactive
COc1ccc(OCCCC(=O)Nc2cc(S(=O)(=O)N3CCCCC3)ccc2C)cc1	inconclusive: 50.1 µM [inhibitor, partial curve, poor fit]
Cc1cc(O)c(C=Nc2ccc(Cl)cn2)c(=O)o1	inconclusive: 17.8 µM [inhibitor, full curve]

SMILES	Potency
O=C(CSc1cn(CC(=O)N2CCCCC2)c2ccccc12)NCC1CCCO1 (stereo not drawn)	inconclusive: 25.1 µM [inhibitor, single point]
C[C@@H](O)C(C(=O)N1CCNCC1)n1cc([C@@H](N)CCCCN)nn1 (stereo partly drawn)	inconclusive: 39.8 µM [inhibitor, single point]
COc1ccc(CCN2C(=O)CSC2c2ccc(F)cc2)cc1 (stereo not drawn)	inactive
CCCOc1cccc(C(=O)Nc2cccc(NC(=O)c3ccco3)c2)c1	inconclusive: 25.1 µM [inhibitor, partial curve, poor fit]
CN(C)c1ccc(/C=C/c2cnnc3ccccc23)cc1	inactive
COc1ccc2c(CC(=O)Nc3ccccc3OC)coc2c1	inactive
O=C(c1ccc(OCCN2CCCCC2)cc1)c1c(-c2ccc(O)cc2)sc2cc(O)ccc12	inconclusive: 1.41 µM [inhibitor, full curve] and inconclusive: 14.1 µM [inhibitor, partial curve, poor fit]
O=C1c2ccccc2-c2n[nH]c3cccc1c23	inactive and inconclusive: 28.2 µM [inhibitor, partial curve]
Cc1nnc(SCC(=O)N/N=C/c2cc(Cl)c(O)c(Cl)c2)s1	inactive
O=C(/C=C/c1ccc(-c2ccccc2[N+](=O)[O-])o1)c1ccco1	inconclusive: 28.2 µM [inhibitor, single point]
O=C(CSc1nnc(-c2ccco2)n1-c1ccccc1)NCC1CCCO1 (stereo not drawn)	inactive
COC(=O)c1ccc(/C=C/C(=O)OCC(=O)Nc2ncc(Cl)cc2Cl)cc1	inactive
O=C(NC1CCCCC1)C(c1ccc(O)cc1)N(CC1CCCO1)C(=O)C1COc2ccccc2O1 (stereo not drawn)	inconclusive: 56.2 µM [inhibitor, partial curve, poor fit]
Cc1ccc2nc(N3C(=O)C(O)=C(C(=O)c4ccc(C)o4)C3c3ccco3)sc2c1 (stereo not drawn)	inconclusive: 15.8 µM [inhibitor, full curve]
CCOC(=O)C(NS(=O)(=O)c1ccccc1)(C(F)(F)F)P(=O)(OCC(C)C)OCC(C)C (stereo not drawn)	inconclusive: 11.2 µM [inhibitor, partial curve, poor fit]
COc1cc(/C=N/n2cnnc2)ccc1OCCSc1ccc(C)cc1	inconclusive: 14.1 µM [inhibitor, partial curve, poor fit]
COc1cccc(C2c3c(-c4ccccc4O)n[nH]c3C(=O)N2CCc2ccc(OC)c(OC)c2)c1 (stereo not drawn)	inactive
Cc1ccc(NC(=O)CCNS(=O)(=O)c2ccc3c(c2)oc(=O)n3C)cc1	active: 20 µM
CCOC(=O)c1c(NC(=O)/C=C/C(=O)O)sc(C)c1-c1ccc(C)c(C)c1	inconclusive: 12.6 µM [inhibitor, partial curve, poor fit]
CSc1ccc(CCNC(=O)C2CCN(c3nnc(-n4cccc4)s3)CC2)cc1	inconclusive: 100 µM [inhibitor, single point]
COc1ccc(CCNC(=O)CCc2c(C)c3cc4c(C)c(C)oc4cc3oc2=O)cc1	inconclusive: 70.8 µM [inhibitor, single point]

SMILES	Potency
Cc1cc(/C=C(\C#N)C(=O)NCc2ccco2)c(C)n1C1CCCC1	inconclusive: 100 µM [inhibitor, partial curve, poor fit]
CN(C)C(=O)COc1ccc(C(=O)/C=C/c2cccnc2)cc1	inconclusive: 25.1 µM [inhibitor, partial curve]
CCCOc1ccc(CN(C(=O)c2nc(SC(C)C)ncc2Cl)C2CCS(=O)(=O)C2)cc1 (stereo not drawn)	inactive
CCCNC(=O)c1ccc(N2CCC3(CC2)CC(c2ccccc2)=NO3)c(NC(=O)c2ccccc2)c1	inconclusive: 39.8 µM [inhibitor, single point]
CCCCC(=O)Nc1ccc(S(=O)(=O)Nc2nccc(C)n2)cc1	inconclusive: 1.26 µM [inhibitor, full curve, poor fit]
Cc1cc(OC(C)C(=O)NCCCN2CCOCC2)c2c(C)c(C)c(=O)oc2c1 (stereo not drawn)	inactive
CCn1cc(C(=O)N2CCN(C3CCCCC3)CC2)c2cc(OC)c(OC)cc2c1=O	inconclusive: 3.16 µM [inhibitor, single point]
CNC(=O)N(O)C1N(NC(=O)Nc2cccc3ccccc23)C(=S)SC1(C)C (stereo not drawn)	inconclusive: 100 µM [inhibitor, single point]
O=C1c2cccc3c([N+](=O)[O-])ccc(c23)C(=O)N1c1ccc(Cl)cn1	inconclusive: 20 µM [inhibitor, full curve]
Cc1ccc(/C=N\NC(=O)c2csnn2)cc1	inconclusive: 3.16 µM [inhibitor, full curve, poor fit]
CN(C)S(=O)(=O)c1cccc(NC(=S)NC(=O)c2ccco2)c1	inactive
Cc1ccc(S(=O)(=O)c2nc(-c3ccco3)oc2SCc2ccccc2Cl)cc1	inconclusive: 56.2 µM [inhibitor, partial curve, poor fit]
COc1ccc(N2CC(NC(=O)COc3ccccc3C)CC2=O)cc1OC (stereo not drawn)	inactive
COc1ccc(CCn2nnnc2C(c2ccc(C)cc2)N2CCN(C)CC2)cc1OC (stereo not drawn)	inconclusive: 31.6 µM [inhibitor, single point]
Cc1cccc(S(=O)Cc2ccc(C(=O)N3CCOCC3)o2)c1 (stereo not drawn)	inconclusive: 79.4 µM [inhibitor, single point]
N#C/C(=C\c1ccc(-c2ccc([N+](=O)[O-])cc2)o1)C(=O)Nc1nc(-c2cccs2)cs1	active: 14.1 µM
O=P(O)(CP(=O)(c1ccccc1)c1ccccc1)c1ccccc1O	inconclusive: 79.4 µM [inhibitor, partial curve, poor fit]
Cc1noc(C)c1COC(=O)CCCOc1ccc(Cl)cc1Cl	inconclusive: 31.6 µM [inhibitor, single point]
CC(C)c1ccc2oc(-c3cccc(NC(=O)c4ccc5c(c4)OCCO5)c3)nc2c1	inconclusive: 89.1 µM [inhibitor, single point]
O=c1oc2ccccc2cc1-c1nc(-c2cccs2)cs1	inconclusive: 20 µM [inhibitor, full curve, poor fit]
CCN(CCC(=O)O)c1ccc(/C=C/c2ccnc3ccccc23)cc1	inconclusive: 63.1 µM [inhibitor, partial curve, poor fit]
